The target in the data set is rTP05746 (Zn2Cys6 transcription factor) (Talaromyces pinophilus) (UniProt A0A3G2KS50). Kind of data set: EMSA. The following applies: salmon sperm DNA, about 50 ng probe, 0-2.0 ug rTP05746, binding buffer of Liao et al. 2018 (composition, salt and pH not given), sheared salmon sperm DNA, 25 C, 20 min, recombinant protein, residues 1-333, protein details: Trx-His-S (pET32a), probe letters rebuilt from the primers and the genome. For orientation: Mobility shift assays separate free from complexed probe on a gel.

Construct, isoform or probe ends are uncertain for at least one entry.

As for “CGAATGGCAACTCTGGCACCATTAGCTTCATGTTTCGTCTTCGATTCTATATCCGGGGAAGAAGACCTCCTATCGATCCACATTGCTCGGTGATACGACAAGCGCGAAGGAAGGAGTAATGTACAAAAACAGAAGTGAGAAAGTATAGTTCACAATTCTGGCATTGAATCTTTGAAAGCAAGAAAGAAGGCGTTGTCAAGATCCAATTCACCAGCCGATATTCCCCGGGTTCTTCTTGACTTCTCAATGCCGCCTGAGGGCGCCACCAATGTTTCAAAGTGTTCTTCTAAATAAGATTAAGCATAAAAAGGACACGATGTAACTGGTCAGCCTCGATCGGCAAATTAATCGGTTAAAACACCTGCGTAGAACATCACTAGTACCTGCAGTAGCCCCTCTAAATCATTCTTCAACCCACCCTGCAGAGAAAGGAGAAAAACCAGCAACCCACAATGATGCATTGAACCTGGCCAAAGAGAGCCTGTTTTAATGTATACCTCTGCAGTAATGCCGACCATCGAATTTCTAATAGGTGGAAAGTCTTAGGCTACATGGCCAGGGCTACATTTCATGTGATCTTCTGCCTATTTCATGTGTCCCCGTAACCCCAAAGCCTCGCGGAGGCCGTGGATAGAATTGAATTAATTTCCTTTACCAAAACGCCTTCTTCGTTCCTCGCTCATTTCGTTTCATCAAATCGAATGCATTTCCCGGATTGCTTCCCCGCACATTTCGCGCCTCCTATCCTAACGAAACGATATCGCGGAAGTTCGGTGAAAAGATACAGATAGATATATGAATATCGTTTCTGTTATATTGCTCCGCATAGGTTCAAGGGTATATAAACAGGCTTACTGTCTAATAATCTCAATAACTGCTCAAATCCATTGTTTGTCCTTCTTCGTACCTGCGGCGAGATTCAATTTTGGACTGATGTCTAACATGGCGAC (double strand) [TP08514/eg1 promoter]”, where the note is “label: FAM (printed TAM in Table S1)”, the binding result is listed as “binds”. In the case of “TTTGTCGATTGCTTCTGACTGTTGCGGTTGATAGTGCCTAATTCTTCAAGGGAAACACCACCATTATATAGTGCTAAACTTGCATTCCATAGCTAGACAAAAATAATAAGAGCTAAGAACTATCTCCTCATCATTACGAGTGTTTTTCTTCATAATCGCGGTACCGCGGAATGTCGGGGCGCGATAGAAGGCGGATGAAGGCACAGCGTTACAGTATCGGCGTATGTGGCTTCATACCAATTTCACTCATAATCGACCTTCAGCCTCTGCCATCCAGACGAAAGTCATTAAACGAAATTATGGTATGTTTTAGCTCGGGTAAGTGTTTTAGCCCCTCAAAGTCCCTGATCTATACGTCCATCTGCCGGAAGCTGCATCTCAAGGACTTGCATTATGCAGGAGCCTACCATATTAATTGGAGTCGATTTGCCGGGAATGACAACACATGAACATCAACAGGGAAAGCAACATTCCCCACGTGCTGTTTTGTAGTGACCGCGGAGGACATGAACATTGACCGACACCCTTTGCTGCGCGCTTGCTAAGCTGACAATGGCCCAACCTTGTTGTGAAAAGAGAGAGATAAACCTACCAGACCCAAGCCTGCAAGATTGCGGAGAACATGAGAAAACTGACTAATTTAAAATTGTGTTGCTCCCTCACTCTCCGCATCTCCGCGATTGATATTCAGGACCATATGCGGGGTTTGTTCCAATTGGCTCGGCATCGGCAGATGAGAATGAGAAGAAACACTCTTTCAACCACGAAGATCAGTTACGTATGTAGTATACGTTTTCAGACACCGGAGAAATTGGCATAATGAATGATCTGGCTTATCTATCCGGATGAGCCTTTTATCGACTGTCGTCAAGTCGACAGCAATGAAGATACATATTTCCGAAATTGGGAATAGCCTCAACGGCATTGTTCCGACATTCATATAGCCTAATAAGGCAAAACTTTCGATCTC (double strand) [TP09412/cbh1 promoter]”, the binding result (label: FAM) was “binds”.

For the origin of these results see paper PMC6923684.
